This data set is described as follows: peptide synthesis. The settings on record: late stage modification step.

Strings that start with PEPTIDE1 are HELM notation: dots part the residues, brackets hold end groups and non-standard residues.

Regarding “PEPTIDE1{[3-OH-C14].S.[D-Dab].D.K.[Dab].[aThr].[Z-Dhb].[Asp(3-OH)].[Thr(4-Cl)]}|CHEM1{[pBn2PO4-BnOCO]}|CHEM2{[pBn2PO4-BnOCO]}|CHEM3{[pBn2PO4-BnOCO]}$PEPTIDE1,PEPTIDE1,2:R3-10:R2|PEPTIDE1,CHEM1,3:R3-1:R2|PEPTIDE1,CHEM2,5:R3-1:R2|PEPTIDE1,CHEM3,6:R3-1:R2$$$V2.0”, the step yield is on record as 34%.

(Values after patent publication US20030008814A1 (priority 2002, published 2003).)
